{"source": "patent EP2874643B1", "about": "“OSTEOPROTEGERIN DERIVED COMPOSITION AND USE THEREOF” (R-Pharm International, LLC, priority 2012, dated 2013)", "test_system": "MDA-MB-468 human breast cancer cells", "assay": "murine bone lytic model of human breast cancer (intratibial inoculation)", "note": "At least one compound was matched to its structure with a doubt left.", "data": [{"smiles": "O=P(O)(O)C(O)(Cn1ccnc1)P(=O)(O)O", "note": "[Zometa, Zoledronic Acid]", "values": [{"measurement": "inhibition of bone lysis compared with Vehicle control, indicated by all microCT scan parameters", "setting": "polypeptide 1 mg/kg s.c. (Group 2), Zometa 0.1 mg/kg i.v. (Group 5), termination", "value": "significant (p<0.05) inhibition of bone lysis"}, {"measurement": "inhibition of bone lysis assessed in X-ray images compared with Vehicle control", "setting": "polypeptide 1, 5 and 10 mg/kg s.c., Zometa 0.1 mg/kg i.v., six and eight weeks post-inoculation", "value": "significant (p<0.05) inhibition of bone lysis"}]}]}
